{"source": "patent EP3797769A1", "about": "“COMPOSITION FOR THERAPEUTIC USE” (Fontès, M. Michel, priority 2019, dated 2021)", "tested_on": "connexon", "conditions": "fibroblasts of the CMTX patient, one day with clémastine 10 µM; LY 110 µM, two hours incubation, fluorescence (Figure 2)", "data": [{"smiles": "CN1CCC[C@@H]1CCO[C@](C)(c1ccccc1)c1ccc(Cl)cc1", "note": "[clémastine]", "values": [{"measurement": "activité connexon", "result": "restaure l'activité connexon"}]}]}
